Results are given in words; binding and its absence hold for the method and conditions named. Binding seen in cells or lysates may run through a third protein. Binding calls can cover weak binding; strength is not graded here.
Target: Flag-H protein of CDV 851 strain (canine distemper virus, strain 851)
Assay: co-IP

B1: dogSLAM receptor (receptor, UniProt Q95MM9 27-342)
chain: ESLMNCPEVPGKLGSSLQLSLASEGISKRMNKSIHILVTRAESPGNSIKKKIVSLDLPEGGSPRYLENGYKFHLENLTLRILESRRENEGWYFMTLEENFSVQHFCLQLKLYEQVSTPEIKVLNWTQENGNCSMMLACEVEKGDNVVYSWSEKLGIDPLIPANSSHLLHLSLGPQHVNNVYVCTVSNPVSNRSWSFNPWSKCRPESSVPRQWRLYAGLFLGGIVGVILIFEVVLLLLRRRGKTNHYKPTKEEKSLTIYAQVQKSGSTQKKPDPLPAEDPCTTIYVAATEPVPEPAPEPVQEPHSITVYASVTFPES
binding: binds

From article PMC9875009
